The record followed here is publication PMC10598267.

Protein sequences, listed by entry. Tags and fused reporters are not part of them.
UniProt Q8WW22: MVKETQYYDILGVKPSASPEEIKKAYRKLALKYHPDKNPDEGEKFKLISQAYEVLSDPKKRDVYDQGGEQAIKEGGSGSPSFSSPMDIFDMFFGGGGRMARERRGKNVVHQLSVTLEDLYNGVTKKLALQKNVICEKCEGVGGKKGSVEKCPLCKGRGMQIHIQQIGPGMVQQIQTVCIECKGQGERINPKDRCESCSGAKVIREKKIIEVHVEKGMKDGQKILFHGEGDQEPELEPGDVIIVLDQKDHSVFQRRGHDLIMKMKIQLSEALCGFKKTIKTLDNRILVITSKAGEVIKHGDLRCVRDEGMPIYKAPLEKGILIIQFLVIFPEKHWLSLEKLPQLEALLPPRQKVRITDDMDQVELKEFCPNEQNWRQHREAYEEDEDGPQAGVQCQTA
UniProt P35579: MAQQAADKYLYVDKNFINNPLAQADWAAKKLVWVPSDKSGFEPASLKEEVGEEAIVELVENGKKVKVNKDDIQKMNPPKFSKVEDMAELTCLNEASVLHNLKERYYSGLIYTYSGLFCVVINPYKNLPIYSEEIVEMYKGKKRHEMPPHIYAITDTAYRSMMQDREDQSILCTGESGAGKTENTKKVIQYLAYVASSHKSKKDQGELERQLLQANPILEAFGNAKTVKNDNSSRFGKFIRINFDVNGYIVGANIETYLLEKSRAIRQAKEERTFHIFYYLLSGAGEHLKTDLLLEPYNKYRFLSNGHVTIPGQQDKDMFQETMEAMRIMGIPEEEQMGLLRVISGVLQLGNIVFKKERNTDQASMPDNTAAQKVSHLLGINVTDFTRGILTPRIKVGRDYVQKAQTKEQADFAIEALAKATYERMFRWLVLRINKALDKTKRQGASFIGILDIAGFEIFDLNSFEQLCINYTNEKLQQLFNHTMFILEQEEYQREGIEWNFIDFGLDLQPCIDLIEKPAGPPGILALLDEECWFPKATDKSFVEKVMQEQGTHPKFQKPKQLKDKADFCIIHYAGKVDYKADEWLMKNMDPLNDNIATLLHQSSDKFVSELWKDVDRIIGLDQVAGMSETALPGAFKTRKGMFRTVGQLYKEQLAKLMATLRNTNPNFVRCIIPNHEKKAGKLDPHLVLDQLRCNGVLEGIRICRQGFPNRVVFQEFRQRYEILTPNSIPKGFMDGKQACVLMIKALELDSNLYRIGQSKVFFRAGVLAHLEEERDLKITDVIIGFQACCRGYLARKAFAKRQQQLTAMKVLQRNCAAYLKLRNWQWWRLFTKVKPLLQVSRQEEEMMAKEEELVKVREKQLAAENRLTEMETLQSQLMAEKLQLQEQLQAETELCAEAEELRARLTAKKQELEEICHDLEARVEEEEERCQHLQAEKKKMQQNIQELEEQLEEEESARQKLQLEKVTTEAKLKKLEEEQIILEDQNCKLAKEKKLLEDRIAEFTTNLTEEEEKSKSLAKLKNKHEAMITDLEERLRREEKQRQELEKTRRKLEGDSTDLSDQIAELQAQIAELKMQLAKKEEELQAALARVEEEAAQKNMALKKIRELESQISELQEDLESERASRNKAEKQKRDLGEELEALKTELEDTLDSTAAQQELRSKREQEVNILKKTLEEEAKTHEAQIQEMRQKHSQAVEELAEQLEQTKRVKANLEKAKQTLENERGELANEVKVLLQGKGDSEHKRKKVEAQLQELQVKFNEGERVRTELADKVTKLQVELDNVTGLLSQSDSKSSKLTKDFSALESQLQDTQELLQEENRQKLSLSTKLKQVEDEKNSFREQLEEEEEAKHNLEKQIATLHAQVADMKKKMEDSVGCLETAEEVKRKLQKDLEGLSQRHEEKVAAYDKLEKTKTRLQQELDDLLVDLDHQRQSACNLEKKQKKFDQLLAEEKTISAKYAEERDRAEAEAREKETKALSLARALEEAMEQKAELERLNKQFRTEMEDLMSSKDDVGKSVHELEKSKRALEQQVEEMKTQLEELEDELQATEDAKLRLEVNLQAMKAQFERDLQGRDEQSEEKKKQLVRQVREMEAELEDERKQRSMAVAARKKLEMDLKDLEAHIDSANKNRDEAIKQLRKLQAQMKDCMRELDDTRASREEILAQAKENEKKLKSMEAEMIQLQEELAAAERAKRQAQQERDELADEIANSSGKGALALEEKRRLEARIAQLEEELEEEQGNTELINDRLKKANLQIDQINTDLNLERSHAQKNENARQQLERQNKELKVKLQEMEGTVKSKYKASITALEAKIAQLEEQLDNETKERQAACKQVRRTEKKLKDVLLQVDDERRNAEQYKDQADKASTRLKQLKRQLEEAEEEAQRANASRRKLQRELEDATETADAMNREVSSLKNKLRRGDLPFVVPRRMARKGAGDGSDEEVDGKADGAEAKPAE
UniProt Q13200: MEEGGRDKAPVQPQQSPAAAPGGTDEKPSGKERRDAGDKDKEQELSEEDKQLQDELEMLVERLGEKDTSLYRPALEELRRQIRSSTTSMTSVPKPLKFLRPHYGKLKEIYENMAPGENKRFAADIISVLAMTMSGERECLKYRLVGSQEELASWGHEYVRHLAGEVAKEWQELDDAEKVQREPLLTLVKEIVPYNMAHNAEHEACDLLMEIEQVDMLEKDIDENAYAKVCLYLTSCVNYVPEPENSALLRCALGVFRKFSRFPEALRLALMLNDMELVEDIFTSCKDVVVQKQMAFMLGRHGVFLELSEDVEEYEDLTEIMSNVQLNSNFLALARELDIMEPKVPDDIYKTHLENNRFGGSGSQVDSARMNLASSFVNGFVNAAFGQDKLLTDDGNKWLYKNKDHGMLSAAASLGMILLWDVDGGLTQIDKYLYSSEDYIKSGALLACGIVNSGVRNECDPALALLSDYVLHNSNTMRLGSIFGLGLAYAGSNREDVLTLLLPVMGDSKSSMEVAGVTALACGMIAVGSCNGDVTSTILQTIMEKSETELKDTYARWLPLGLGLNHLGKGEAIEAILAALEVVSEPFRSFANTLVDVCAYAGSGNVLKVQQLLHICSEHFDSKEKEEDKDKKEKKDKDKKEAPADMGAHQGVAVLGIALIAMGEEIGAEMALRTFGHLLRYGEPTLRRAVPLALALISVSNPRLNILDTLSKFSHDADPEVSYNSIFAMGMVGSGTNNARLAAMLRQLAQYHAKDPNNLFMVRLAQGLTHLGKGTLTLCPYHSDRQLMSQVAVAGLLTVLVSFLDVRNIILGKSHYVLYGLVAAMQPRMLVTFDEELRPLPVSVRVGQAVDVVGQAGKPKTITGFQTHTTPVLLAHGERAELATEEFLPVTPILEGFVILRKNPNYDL

These are yes or no findings as the source states them, for the method shown. Binding seen in cells or lysates may run through a third protein. These calls come from enrichment with a bait or labelling near it, and not all partners need be listed.

The assay addresses HA-tagged DNAJA4 (DNAJ Heat Shock Protein Family (HSP40) Member A4) (UniProt Q8WW22). The assay is described as follows: affinity purification with mass spectrometry; SUNE1 cells transiently transfected with HA-tagged DNAJA4; lysate incubated with anti-HA antibody or IgG overnight at 4 °C, Protein A/G magnetic beads; SDS-PAGE, silver staining, LC-MS/MS.

Regarding “MYH9 (endogenous) (from UniProt P35579 1-1960)”, the binding entry was “binds”.

For the substance “PSMD2 (endogenous) (from UniProt Q13200 1-908)”, the binding result is “binds”.
